Measured values from paper PMC11479942, “XPD stalled on cross-linked DNA provides insight into damage verification”.
Numbering of substitutions follows the chain as printed. The exact form of at least one protein or probe is not confirmed. At least one verdict was read from the data and is not stated in words by the source. Where a protein sequence is shown, tags need not be part of it.

Legend:
Test in all cases: fluorescence anisotropy
[1] = biological target: T1, XPD R372A R355A (Chaetomium thermophilum (paper: C. thermophilum)) (UniProt G0RZH0); details: 5 mM MgCl2, no nucleotide, range over all variants; Fluorescence anisotropy: 20 mM HEPES pH 7.5, 50 mM KCl, 5 mM MgCl2, 1 mM TCEP, 5 nM DNA, room temperature; recombinant protein; protein details: N-terminal 6xHis, TEV site; label: 5' Cy3; folded or branched DNA
T1 sequence (looked up, limits assumed): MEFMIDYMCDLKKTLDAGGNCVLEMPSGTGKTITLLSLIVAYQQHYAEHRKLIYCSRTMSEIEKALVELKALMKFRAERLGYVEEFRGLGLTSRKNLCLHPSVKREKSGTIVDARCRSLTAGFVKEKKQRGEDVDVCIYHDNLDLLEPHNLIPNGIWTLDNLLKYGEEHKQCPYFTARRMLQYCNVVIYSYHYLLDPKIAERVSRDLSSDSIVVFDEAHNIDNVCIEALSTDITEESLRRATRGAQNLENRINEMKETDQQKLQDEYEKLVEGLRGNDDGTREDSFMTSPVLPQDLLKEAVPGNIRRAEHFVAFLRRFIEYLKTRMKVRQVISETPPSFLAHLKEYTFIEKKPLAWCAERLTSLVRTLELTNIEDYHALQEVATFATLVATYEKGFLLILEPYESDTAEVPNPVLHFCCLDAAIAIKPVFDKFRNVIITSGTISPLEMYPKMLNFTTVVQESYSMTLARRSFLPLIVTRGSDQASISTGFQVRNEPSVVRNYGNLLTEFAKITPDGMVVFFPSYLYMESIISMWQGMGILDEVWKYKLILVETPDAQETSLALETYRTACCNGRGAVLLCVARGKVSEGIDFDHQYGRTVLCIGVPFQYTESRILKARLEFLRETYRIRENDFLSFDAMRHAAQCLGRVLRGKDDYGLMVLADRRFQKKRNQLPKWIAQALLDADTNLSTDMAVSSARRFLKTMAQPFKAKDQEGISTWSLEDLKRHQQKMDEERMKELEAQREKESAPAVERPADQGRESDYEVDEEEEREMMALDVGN

[2] = biological target: T2, XPD R372E R355E (Chaetomium thermophilum (paper: C. thermophilum)) (UniProt G0RZH0); details: 5 mM MgCl2, no nucleotide, range over all variants; Fluorescence anisotropy: 20 mM HEPES pH 7.5, 50 mM KCl, 5 mM MgCl2, 1 mM TCEP, 5 nM DNA, room temperature; recombinant protein; protein details: N-terminal 6xHis, TEV site; label: 5' Cy3; folded or branched DNA
T2 sequence (looked up, limits assumed): T1 sequence (looked up, limits assumed) with A355E

[3] = biological target: T3, XPD W373A W356A (Chaetomium thermophilum (paper: C. thermophilum)) (UniProt G0RZH0); details: 5 mM MgCl2, no nucleotide, range over all variants, own value in Extended Data Table 1 (not in material); Fluorescence anisotropy: 20 mM HEPES pH 7.5, 50 mM KCl, 5 mM MgCl2, 1 mM TCEP, 5 nM DNA, room temperature; recombinant protein; protein details: N-terminal 6xHis, TEV site; label: 5' Cy3; folded or branched DNA
T3 sequence (looked up, limits assumed): T1 sequence (looked up, limits assumed) with A355R, W356A

[4] = biological target: T4, XPD W373E W356E (Chaetomium thermophilum (paper: C. thermophilum)) (UniProt G0RZH0); details: 5 mM MgCl2, no nucleotide, range over all variants; Fluorescence anisotropy: 20 mM HEPES pH 7.5, 50 mM KCl, 5 mM MgCl2, 1 mM TCEP, 5 nM DNA, room temperature; recombinant protein; protein details: N-terminal 6xHis, TEV site; label: 5' Cy3; folded or branched DNA
T4 sequence (looked up, limits assumed): T1 sequence (looked up, limits assumed) with A355R, W356E

Measured: binding result

TTTTTTTTTTTTTTTCCCGGCCATGCGAAGCATGGCCGTT [5' overhang self-annealing hairpin]
binds: all assays above
